Laboratory results taken from PubChem BioAssay AID493014 (National Center for Advancing Translational Sciences (NCATS), 2011).
In all, about 340,000 compounds went through this assay and about 170 (0.05%) were called active. The inconclusive results got no clear call from the source; some entries with a clear call stand among them for comparison. Calls follow the shape of the dose curve; as a rule, active = well fitted inhibition curve with a large enough effect in the signal ratio, with a control signal flat (not every such curve was filed as active); inconclusive = small, poorly fitted or top-dose-only effect, or effect the other way, or a change in a side signal; inactive = flat fitted curve, though single readings scatter; the % refers to the signal ratio. Potencies beside an inconclusive call are fits to weak or partial responses and may not hold up.

experiment: qHTS Assay to Find Inhibitors of Chronic Active B-Cell Receptor Signaling; settings: ABC-DLBCL IkBa-CBG/CBR reporter, luminescence ratio (green luciferase fused to IkBa over red control in TMD8 lymphoma cells), 4 h; activity change, negative = inhibition: at 46.1 µM (top of the series);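 as to activity change, negative = inhibition: plate controls were basal doxycycline-induced cells for no effect and cells given 10 µM MG132 for full effect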
Method in brief: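 Cell line TMD8 (human ABC DLBCL), stably expressing tet-inducible CBG68-IkBa fusion and CBR; IMDM/0.5% FBS; cpd up to 46 uM; dox induction, 4 h, 37C/5% CO2; dual luminescence; green/red ratio; MG132 control.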
Potency is read from the fitted curve at half-maximal effect.

Row | Structure (SMILES) | Potency | activity change, negative = inhibition
1 | COc1cccc(C(=O)Nc2c(F)c(F)c(F)c(F)c2F)c1 | inconclusive: 6.51 µM [falling, full curve] | –
2 | O=C(Nc1nccs1)c1cc2sccc2n1Cc1ccc(F)cc1 | – | inconclusive: 13%
3 | CCCOc1ccc2ccccc2c1/C=N/n1c(C)nnc1-n1nc(C)cc1C | inconclusive: 20.6 µM [falling, single point] | –
4 | COc1cc2[nH]c(C(=O)Nc3ccc4c(c3)OCCO4)cc2c(OC)c1OC | – | inconclusive: -5.71%
5 | CCOc1cccc2sc(NC(=O)CC)nc12 | inconclusive: 2.06 µM [rising, full curve, poor fit] | –
6 | O=C(/C=C/c1ccc2c(c1)OCO2)c1ccccn1 | – | inconclusive: 1.26%
7 | CSc1nnc2c(n1)OC(c1cn(C)c3ccccc13)N(C(C)=O)c1ccccc1-2 (stereo unspecified) | – | inconclusive: -5.09%
8 | Cc1ccc(Cn2c(=N)n(CC(=O)c3ccc([N+](=O)[O-])cc3)c3ccccc32)cc1 | – | inactive: 1.27%
9 | COc1cc(OC)cc(C(=O)Nc2ccc(S(=O)(=O)Nc3nc(C)cc(C)n3)cc2)c1 | inconclusive: 14.1 µM [falling, partial curve, poor fit] | –
10 | CC(=O)Cc1nsc(NC(=O)c2cccc(F)c2)n1 | – | inconclusive: -5.53%
11 | Cn1c(=O)n(/N=C/c2ccccc2)c2ccccc21 | – | inconclusive: -0.988%
12 | O=c1cc(-c2ccccc2)n2c(SCc3ccc(F)cc3)nnc2[nH]1 | – | inactive: 3.2%
13 | O=C(NCC(=O)N(Cc1ccco1)C(C(=O)NC1CCCC1)c1ccncc1)c1cccs1 (stereo unspecified) | – | inconclusive: -3.08%
14 | CC(C)(C)NS(=O)(=O)c1cc(C(=O)Nc2sccc2C#N)ccc1Cl | – | inactive: 3.14%
15 | Cc1ccc(NC(=S)N(CCN2CCOCC2)Cc2ccccc2F)cc1 | – | inconclusive: 4.29%
16 | CC#CCCCC(=O)Nc1cc(OC)nc(OC)n1 | – | inconclusive: -9.88%
17 | CCOC(=O)c1c(NC(=O)COC(=O)Cn2cnc3ccccc32)sc2c1CCC(C)C2 (stereo unspecified) | – | inconclusive: 0.402%
18 | COc1ccc2[nH]cc(C(=O)NCCc3ccccc3)c(=O)c2c1 | – | inactive: -2.57%
19 | C=CCn1c(CNc2ccccc2)nnc1SCC(=O)N/N=C/c1ccccc1O | – | inconclusive: -0.647%
20 | COCCN=C1N[C@@H](c2ccc(Br)cc2)C(C(=O)OC)=C(C)N1Cc1ccccc1 | inconclusive: 17.8 µM [falling, single point] | –
21 | CCOC(=O)C1=C(O)/C(=C\c2ccc(OC)c(OC)c2)N=C1C | – | inactive: -4.77%

Row | Structure (SMILES) | Potency | activity change, negative = inhibition
22 | c1ccc(SCc2nc3ccccc3s2)nc1 | – | inconclusive: -0.485%
23 | O=C(C[n+]1cc(-c2ccc(F)cc2)n2c1CCC2)N1c2ccccc2Sc2ccccc21 | inconclusive: 23.1 µM [falling, partial curve] | –
24 | O=c1[nH]cnc2scc(-c3ccc(-c4ccccc4)cc3)c12 | inconclusive: 4.11 µM [falling, full curve, poor fit] | –
25 | COc1cc(C(C[N+](=O)[O-])c2c(C)cc3ccccn23)ccc1O (stereo unspecified) | inconclusive: 3.98 µM [falling, partial curve, poor fit] | –
26 | CC(=O)N1CCN(C(=O)c2cc(S(=O)(=O)N(C)Cc3ccccc3)ccc2Cl)CC1 | – | inactive: -2.81%
27 | Cc1nc2c(-c3ccccc3)c[nH]n2c(=O)c1Cc1ccccc1 | – | inconclusive: -8.25%
28 | Cc1ccc(C(=O)Nc2ccccc2SCC2CSc3nc4ccccc4c(=O)n32)cc1 (stereo unspecified) | – | inconclusive: 9.11%
29 | Cc1ccc(N2CCN(C(=O)c3cccc([N+](=O)[O-])c3)CC2)cc1Cl | – | inconclusive: 3.4%
30 | Cc1ccc(CS(=O)(=O)Cc2ccc(C(=O)NCc3ccccn3)o2)cc1 | – | inconclusive: -14.2%
31 | S=c1[nH]ncn1/N=C/c1cccs1 | – | inactive: -4.58%
32 | Fc1ccc(CSc2nnc(Cc3sc(-c4ccccc4)nc3-c3ccccc3)o2)cc1 | inconclusive: 29.1 µM [falling, single point] | –
33 | Cc1cc(C(c2ccc(O)cc2)c2cc(C)c(O)cc2C)c(C)cc1O | inconclusive: 25.1 µM [falling, single point] | –
34 | COc1ccc(NC(=O)c2cc(Br)ccc2Cl)c([N+](=O)[O-])c1 | – | inconclusive: -1.03%
35 | CN1CCN(C(=S)C(=O)Nc2ccccc2)CC1 | – | inconclusive: -15.3%
36 | O=C(Cc1c(F)cccc1Cl)NCCN1CCOCC1 | – | inconclusive: 13.7%
37 | Cc1cc(C)c(S(=O)(=O)Nc2ccc(N(C)C)cc2)c(C)c1-n1cnnn1 | – | inconclusive: -29.9%
38 | CC1C(=NO)C(C)C(c2ccc(N(C)C)cc2)NC1c1ccc(N(C)C)cc1 (stereo unspecified) | – | inconclusive: 1.69%
39 | COc1cccc(CC(=O)Nc2ccc3c(c2)OC2(CCCC2)O3)c1 | – | inconclusive: -8.58%
40 | O=C1c2cccc3c([N+](=O)[O-])ccc(c23)C(=O)N1c1nccs1 | inconclusive: 0.184 µM [rising, full curve, poor fit] | –
41 | CCOC(=O)/C(C#N)=C/Nc1ccccc1OC | – | inactive: -9.13%
42 | Cc1ccccc1OCCNc1ccc(C(F)(F)F)cc1[N+](=O)[O-] | – | inconclusive: 12.7%

Entries of single compounds from above:
CC(=O)N1CCN(C(=O)c2cc(S(=O)(=O)N(C)Cc3ccccc3)ccc2Cl)CC1 in the list: activity change, negative = inhibition: inactive: -2.81%
CN1CCN(C(=S)C(=O)Nc2ccccc2)CC1 in the list: activity change, negative = inhibition: inconclusive: -15.3%
O=C(Cc1c(F)cccc1Cl)NCCN1CCOCC1 in the list: activity change, negative = inhibition: inconclusive: 13.7%

(list continues)

Row | Structure (SMILES) | Potency | activity change, negative = inhibition
43 | CNc1nc(Nc2ccc(C(C)=O)cc2)nc(OC(C(F)(F)F)C(F)(F)F)n1 | – | inactive: -1.32%
44 | COc1cc2c(cc1OC)[C@@H](NC(=O)C(C)C)[C@H](O)C2 | – | inconclusive: 0.901%
45 | CCCN1C(=O)/C(=c2\sc3nc(=O)c(Cc4ccc(C)cc4)nn3c2=O)c2ccccc21 | – | inactive: 2.85%
46 | COc1ccccc1CNC(=O)COC(=O)CSc1ccc(C)c(C)c1 | – | inconclusive: 3.03%
47 | Cc1ccccc1C(=O)NC(C(=O)Nc1nc2c(s1)CCCC2)C(C)C (stereo unspecified) | – | inactive: -10.9%
48 | Cc1ccc2c(c1)c1ncnc(N3CCc4ccccc4C3)c1n2C | – | inconclusive: 14.1%
49 | OCC[C@@H]1C[C@@H](O)[C@H](O)[C@@]2(OCc3ccccc32)O1 | inconclusive: 17.8 µM [falling, partial curve] | –
50 | CCCNC(=O)c1ccc(N2CCC3(CC2)CC(c2cccc(Br)c2)=NO3)c([N+](=O)[O-])c1 | – | inactive: 14.1%
51 | COc1ccc(-c2nn(-c3ccccc3)cc2/C=N/NC(N)=S)cc1OC | inconclusive: 16.4 µM [cytotoxic, partial curve] | –
52 | Fc1cccc(/C=N/Nc2ccccn2)c1 | inconclusive: 35.5 µM [falling, single point] | –
53 | CCOC(=O)C1CCCN(c2c(C(=O)c3ccccc3)cnc3ccccc23)C1 (stereo unspecified) | – | inconclusive: -14.2%
54 | Cc1nnc(N2C(=O)C(=O)/C(=C(/O)c3ccc4c(c3)CC(C)O4)C2c2ccccc2F)s1 (stereo unspecified) | – | inactive: 3.37%
55 | O=S1OC(c2ccccc2)c2cc(Cl)ccc21 (stereo unspecified) | – | inconclusive: -14.3%
56 | O=C(Cc1cccc(C(F)(F)F)c1)NCC(=O)Nc1cc(Cl)ccc1Cl | inconclusive: 35.5 µM [falling, single point] | –
57 | Cc1cc(C)c2cc(C(c3nnnn3C3CCCC3)N3CCOCC3)c(=O)[nH]c2c1 (stereo unspecified) | – | inconclusive: 2.54%
58 | CCNc1ccccc(C(=O)/C=C/c2ccc3c(c2)OCO3)c1=O | – | inconclusive: 0.152%
59 | O=C(Cc1ccc(Cl)cc1Cl)OCC(=O)N1CCN(C(=O)c2ccco2)CC1 | – | inconclusive: 0.927%
60 | Nc1nc(SC2c3cccc4cccc(c34)C2NS(=O)(=O)c2ccccc2)n[nH]1 (stereo unspecified) | – | inactive: 2.19%
61 | O=C(O)CNC(=O)c1ccc(OC(F)F)cc1 | – | inactive: 0.0465%
62 | Cc1ccc(NC(=O)c2nc(S(=O)(=O)Cc3ccccc3)ncc2Cl)cc1 | – | inconclusive: 20.5%
63 | Cn1c(=O)c2c(nc(SCC(=O)N3CCc4ccccc43)n2Cc2ccccc2)n(C)c1=O | – | inconclusive: 0.491%

Row | Structure (SMILES) | Potency | activity change, negative = inhibition
64 | FC(F)(F)c1ccc2c(c1)C1C=CCC1C(c1ccncc1)N2 (stereo unspecified) | inconclusive: 35.5 µM [falling, partial curve, poor fit] | –
65 | CCOC(=O)c1c(C)c(C(=O)Nc2cc(F)ccc2F)c(C)n1C | – | inactive: 0.0373%
66 | COc1ccc(O)c(CNn2c(-c3ccc(Br)cc3)nc3ccccc3c2=O)c1 | – | inconclusive: -13.5%
67 | COCCNC(=O)c1cc2cc3ccc(OC)cc3nc2o1 | inconclusive: 22.4 µM [falling, single point] | –
68 | Cc1cc(/C=C2/NC(=O)N(Cc3ccccc3F)C2=O)c(C)n1C(C)C | – | inconclusive: 1.94%
69 | CC(=O)N1N=C(c2ccc(C(C)(C)C)cc2)OC1(C)C | – | inactive: -1.56%
70 | O=c1nc2cccc3c2=c(/c1=C(\O)c1ccccc1)c1ccccc1c3=O | – | inconclusive: 15.3%
71 | COCCn1c(C)cc(C2=NNC(=Nc3ccccc3F)SC2)c1C | – | inconclusive: 23.3%
72 | CCCOc1ccc(CSc2nnc(CCC)n2N)cc1 | – | inactive: -0.438%
73 | O=C(COC(=O)c1cc2ccccc2cc1O)Nc1ccccc1F | – | inconclusive: -2.53%
74 | CS(=O)(=O)c1ccc(C(=O)OCc2nnc(-c3ccccc3)o2)cc1[N+](=O)[O-] | – | inconclusive: 2.16%
75 | COc1ccccc1NC(=O)c1ccc(NC(=O)CSc2nnnn2C)cc1 | inconclusive: 29.1 µM [falling, single point] | –
76 | COCCn1c(N)c(C(=S)NC(=O)c2cccs2)c(=O)[nH]c1=O | – | inconclusive: 17.1%
77 | CCN(CC)C(=O)c1sc2c(c1C)c(=O)n(CCc1ccccc1)c(=O)n2Cc1cccc(Cl)c1 | inconclusive: 10 µM [rising, partial curve, poor fit] | –
78 | COc1ccc(C2=NN(C(=O)CSc3ncccn3)C(c3ccc(OC)cc3)C2)cc1 (stereo unspecified) | – | inactive: -19.5%
79 | CC(=O)Nc1ccc(S(=O)(=O)Nc2ccc3c(c2)OCO3)cc1 | – | inactive: -0.857%
80 | CCc1ccccc1N(CC(=O)NC1CCCCC1)C(=O)CCC(=O)Nc1ccccn1 | – | inconclusive: -0.266%
81 | CCn1nc(C(=O)Nc2nc3ccc(C)cc3s2)c2ccccc2c1=O | – | inconclusive: -0.286%
